Some of the results follow. Further columns of the screen follow, without active or inactive calls. The list favours compounds with an active or inconclusive main result. Words in brackets tell the shape of the fitted curve; partial curves, single points and poor fits give uncertain potencies.
Test: qHTS Assay for Modulators of Lamin A Splicing
Settings: HeLa LMNA splicing GFP/RFP minigene ratio, 48 h
Summary of the method: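 S3 HeLa cells stably expressing lamin A-EGFP splicing minigene plus DsRed2, 600 cells/well, 48 h compound exposure at 37C. Laser-scanning cytometry; analysed as GFP (500-530 nm)/RFP (575-640 nm) total intensity ratio; 0.5% DMSO vehicle.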

[1] = measured here: GFP splicing reporter channel
[2] = measured here: RFP viability control channel

| SMILES | AC50 [1] | AC50 [2] |
| --- | --- | --- |
| CC(C)c1ccc(NC(=O)NC2CCCCC2)cc1 | 35.5 µM [rising, single point] |  |
| CCCCOc1ccc(C(=O)Nc2ccc(SC(F)F)cc2)cc1OC | 0.0501 µM [rising, full curve, poor fit] | 0.0251 µM [rising, full curve, poor fit] |
| COc1ccc(-n2c(C)cc(C)c(C(C)=O)c2=S)cc1 |  | 0.0562 µM [falling, full curve, poor fit] |
| CN(C)c1ncnc2ccc(-c3cccc(C#N)c3)cc12 | 6.31 µM [falling, partial curve, poor fit] |  |
| O=C(/C=C/c1ccccc1)c1ccccc1 | 8.91 µM [falling, full curve] | 22.4 µM [falling, partial curve, poor fit] |
| Cc1csc(NC(=O)NC2(C(F)(F)F)Oc3ccccc3O2)n1 |  | 7.08 µM [rising, partial curve] |
| CC(C)CCNc1nc2c(c(=O)n(Cc3cccc(F)c3)c(=O)n2C)n1C | 0.631 µM [rising, full curve, poor fit] | 6.31 µM [rising, partial curve, poor fit] |
| CN(C)S(=O)(=O)N1CCC(CCCC2CCN(S(=O)(=O)N(C)C)CC2)CC1 | 3.98 µM [rising, single point] |  |
| Cc1cc(C)cc(OCC(=O)N(Cc2cccs2)c2ccc(Cl)cc2)c1 |  | 31.6 µM [rising, single point] |
| O=C(NCc1ccco1)c1csc(Nc2ccccc2Cl)n1 |  | 25.1 µM [rising, single point] |
| Fc1ccc(-c2nn(-c3ccccc3Cl)c3c2cnc2ccccc23)cc1 | 35.5 µM [falling, single point] | 35.5 µM [falling, single point] |
| CCOc1ccc(N2C(=O)CC(NCC3CCCO3)C2=O)cc1 (centres undefined) | 0.02 µM [rising, full curve, poor fit] |  |
| CC1(C)CC[C@]2(C(=O)O)CC[C@@]3(C)C(=CCC4[C@@]5(C)CCC(O)[C@@](C)(CO)C5CC[C@@]43C)C2C1 (some centres undefined) | 12.6 µM [rising, partial curve, poor fit] | 22.4 µM [rising, single point] |
| COc1ccc2c(c1)C(=O)[C@@H](O)[C@H](c1ccc(OC)c(Br)c1)O2 | 35.5 µM [rising, single point] | 28.2 µM [rising, single point] |
| C=CCN1N=C(c2ccc(Cl)s2)CSC1=O |  | 15.8 µM [falling, single point] |
| COC(=O)c1ccccc1NC(=O)C1CC(=O)N(c2ccc(OC)cc2)C1 (centres undefined) |  | 5.01 µM [rising, partial curve, poor fit] |
| CCn1nc(C)c2c(-c3ccccc3)cc(=O)n(C(C)C(=O)NCCC(C)C)c21 (centres undefined) | 11.2 µM [falling, partial curve, poor fit] | 0.00355 µM [falling, full curve, poor fit] |
| C=CCn1c(C)cc(C(=O)Cn2ncc(Cl)c(Cl)c2=O)c1C |  | 35.5 µM [falling, single point] |
| Cc1sc(NC(=O)CCC(=O)O)c(C(N)=O)c1-c1ccccc1 | 0.0794 µM [rising, full curve, poor fit] |  |
| Cc1ccc(NC(=O)Cn2nc(C(=O)Nc3ccc(C)cc3)ccc2=O)cc1 |  | 0.0316 µM [falling, full curve, poor fit] |
| CS(=O)(=O)c1ccc(S(=O)CC(=O)OCc2ccccc2)c([N+](=O)[O-])c1 (centres undefined) |  | 10 µM [falling, partial curve] |
| COc1ccc(CNS(=O)(=O)c2ccc(N3CCCCS3(=O)=O)cc2)cc1 |  | 2.51 µM [falling, single point] |
| CC(C)OC(=O)c1ccc(NC(=O)c2ccccc2)cc1 | 12.6 µM [rising, partial curve, poor fit] | 31.6 µM [rising, partial curve] |
| O=C1OCCN1/N=C\c1ccc([N+](=O)[O-])o1 | 0.01 µM [falling, full curve, poor fit] |  |
| O=C(COc1ccccc1F)Nc1ccc2nc(SCCOc3ccccc3)sc2c1 |  | 0.251 µM [falling, full curve, poor fit] |
| CC(C)(C)OC(=O)N1CCC(c2c(C(=O)NCc3cccc(Cl)c3)cnn2-c2ccc(F)cc2)CC1 | 0.00891 µM [rising, full curve] |  |
| O=C(C=C=Nc1ccccc1)C(=O)N=C=Cc1ccccc1 | 0.891 µM [falling, full curve, poor fit] | 2.82 µM [falling, partial curve] |

| SMILES | AC50 [1] | AC50 [2] |
| --- | --- | --- |
| O=C(NCc1cccnc1)C(=O)NCC1OCCN1S(=O)(=O)c1ccc(Cl)cc1 (centres undefined) |  | 35.5 µM [rising, single point] |
| COc1cc(/C=C(\C#N)C(=O)NCC2CCCO2)ccc1O (centres undefined) |  | 20 µM [rising, single point] |
| OCCNc1nc2ccccc2n1-c1ncnc2sc3c(c12)CCC3 |  | 17.8 µM [rising, single point] |
| Cc1ccc(S(=O)(=O)N2CCC(=O)N(C(CO)C(C)C)CC2)cc1 (centres undefined) | 0.708 µM [falling, full curve] | 1.58 µM [falling, partial curve, poor fit] |
| O=C(/C(=C/c1ccc(Cl)cc1)c1nc2ccccc2[nH]1)c1ccccc1 | 2.82 µM [falling, full curve] | 3.55 µM [falling, full curve] |
| CC1CCN(C(=O)Cn2c(=O)n(CC3CCC(C(=O)NC(C)C)CC3)c(=O)c3sccc32)CC1 (centres undefined) | 0.01 µM [falling, full curve, poor fit] | 0.00794 µM [falling, full curve, poor fit] |
| Nn1c(SCC(=O)Nc2ccc3c(c2)OCO3)nncc1=O | 0.01 µM [falling, full curve, poor fit] | 0.00447 µM [falling, full curve, poor fit] |
| On1c(-c2ccccc2Cl)nc2ccccc21 |  | 39.8 µM [falling, partial curve, poor fit] |
| Cn1cc(-c2cc3n(n2)CCC(=O)N3CCCC(=O)NCc2ccc(Cl)cc2)c2ccccc21 |  | 20 µM [falling, partial curve, poor fit] |
| Cc1ccc(NC(=O)COc2ncnc3ccccc23)cc1S(=O)(=O)N1CCOCC1 |  | 0.0355 µM [rising, full curve, poor fit] |
| O=C(O)CCCC(=O)NCCCCc1ccccc1 |  | 0.00501 µM [falling, full curve, poor fit] |
| CCOC(=O)c1cc(-c2ccc(OC)cc2)n(CCC(=O)Nc2ccccc2OC)c1C | 35.5 µM [falling, single point] | 0.0112 µM [falling, full curve, poor fit] |
| O=C(Cn1cc([N+](=O)[O-])nc1[N+](=O)[O-])N1CCN(c2ccccc2)CC1 |  | 35.5 µM [falling, single point] |
| Cc1ccc(/C=C2\SC(=S)N(Cc3ccccc3)C2=O)o1 | 22.4 µM [falling, single point] | 25.1 µM [falling, single point] |
| O=C(Nc1nnc(C2CC2)o1)c1ccc(S(=O)(=O)N2CCCc3ccccc32)cc1 |  | 10 µM [rising, partial curve] |
| COC(=O)c1ccc(N2CCCCC2)c(NS(=O)(=O)c2ccc(C)cc2)c1 | 14.1 µM [rising, single point] | 22.4 µM [rising, single point] |
| CS(=O)(=O)Nc1nnc(Cc2ccccc2)s1 | 1.58 µM [falling, partial curve] | 0.794 µM [falling, single point] |
| Cc1cccc(-n2c(SCC(=O)Nc3ncc(Cl)cc3Cl)nc3ccccc32)c1 |  | 2.82 µM [rising, partial curve] |
| CCCCCOc1ccc(Br)cc1/C(C)=N/NC1=NCCN1 |  | 3.16 µM [rising, full curve] |
| O=C(NC(NC(=S)Nc1ccccc1)C(Cl)(Cl)Cl)c1cccc(Cl)c1 (centres undefined) | 17.8 µM [falling, partial curve] | 25.1 µM [falling, partial curve] |
| C/C(=N\NC(=O)c1ccc(Br)cc1)C1C(=O)c2ccccc2C1=O |  | 17.8 µM [rising, partial curve, poor fit] |
| CCOC(=O)Cn1c(=O)n(CC2CCCO2)c2nc(-c3ccccc3OC)nc(C(N)=O)c21 (centres undefined) | 8.91 µM [falling, partial curve] |  |
| O=C(NCc1cccs1)c1ccc2c(=O)n3nc(Nc4ccccc4)sc3nc2c1 | 28.2 µM [falling, single point] | 2.51 µM [rising, partial curve] |
| Cc1c(NC(=O)/C(C#N)=C/c2ccc(-c3ccc(Cl)c(Cl)c3)o2)c(=O)n(-c2ccccc2)n1C |  | 0.891 µM [rising, partial curve, poor fit] |
| Cc1c(C=O)c2ccccc2n1CC(=O)N1CCc2ccccc2C1 |  | 25.1 µM [rising, single point] |
| Cc1ccc2[nH]c(=O)c(-c3nc4cc(C)ccn4c3NCc3ccco3)cc2c1 | 15.8 µM [rising, partial curve] | 15.8 µM [rising, partial curve, poor fit] |
| N#Cc1c(N)nc(SCc2ccncc2)c(C#N)c1-c1cccs1 |  | 11.2 µM [rising, single point] |

Three consecutive records out of the list so far, for reference:

| SMILES | AC50 [1] | AC50 [2] |
| --- | --- | --- |
| COC(=O)c1ccccc1NC(=O)C1CC(=O)N(c2ccc(OC)cc2)C1 (centres undefined) |  | 5.01 µM [rising, partial curve, poor fit] |
| CCn1nc(C)c2c(-c3ccccc3)cc(=O)n(C(C)C(=O)NCCC(C)C)c21 (centres undefined) | 11.2 µM [falling, partial curve, poor fit] | 0.00355 µM [falling, full curve, poor fit] |
| C=CCn1c(C)cc(C(=O)Cn2ncc(Cl)c(Cl)c2=O)c1C |  | 35.5 µM [falling, single point] |
